# System: HLA molecules from shock-frozen tissue samples (CRC, other tumors, normal tissues)
# Test: Identification and label-free relative LC-MS quantitation of HLA-presented tumor associated peptides (presentation profiles, XPRESIDENT)
# Parameters: species or system human; key to Peptide Presentation (presentation score): very highly over-presented on tumors compared to a panel of normal tissues (+++); highly over-presented on tumors compared to a panel of normal tissues (++); over-presented on tumors compared to a panel of normal tissues (+)
# Conditions: additional tumor types: over-presented on more than 5% of measured tumor samples, or presented on more than 5% with ratio of geometric means tumor vs normal larger than 3
row,Substance,Other relevant organs/diseases
1,230 (AMSSKFFLV; listed as Homo sapiens) [compound 230],"Lung, Brain, Stomach, Liver, Pancreas, Prostate, Breast, Ovary, Esophagus"
2,102 (KILVSLIEV; listed as Homo sapiens) [compound 102],"Lung, Kidney, Ovary, Esophagus"
3,70 (MISELEVRL; listed as Homo sapiens) [compound 70],"Kidney, Stomach, Prostate, Esophagus"
4,222 (GVIAEILRGV; listed as Homo sapiens) [compound 222],"Lung, Kidney, Brain, Liver"
5,153 (ILFSEDSTKLFV; listed as Homo sapiens) [compound 153],"Lung, Liver, Leukocytes, Melanoma, Ovary, Esophagus"
6,159 (VLVDDDGIKVV; listed as Homo sapiens) [compound 159],"Liver, Melanoma, Ovary"
7,74 (YLMGFLHAV; listed as Homo sapiens) [compound 74],Ovary
8,33 (ALWEKNTHL; listed as Homo sapiens) [compound 33],"Liver, MCC"
9,119 (ILYQTVTGL; listed as Homo sapiens) [compound 119],Esophagus
10,103 (FLFGYPKRL; listed as Homo sapiens) [compound 103],"Brain, Liver, Prostate"
11,79 (SLAADQLLKL; listed as Homo sapiens) [compound 79],"Lung, Liver"
12,46 (GLDDRYSLV; listed as Homo sapiens) [compound 46],Esophagus
13,206 (RIAGIRGIQGV; listed as Homo sapiens) [compound 206],"Lung, Kidney, Liver, Prostate, Ovary"
14,143 (KLSDVWKEL; listed as Homo sapiens) [compound 143],Lung
15,132 (ALLNAILHSA; listed as Homo sapiens) [compound 132],"Lung, Brain, Liver, Ovary, Esophagus"
16,45 (ALAELLHGA; listed as Homo sapiens) [compound 45],"Lung, Kidney, Brain, Liver, Prostate, Breast, Ovary"
17,53 (FLLGSEIKL; listed as Homo sapiens) [compound 53],"Kidney, Pancreas"
18,259 (ALADKELLPSV; listed as Homo sapiens) [compound 259],"Lung, Kidney, Liver, Pancreas, Prostate, Melanoma, Ovary, Esophagus"
19,180 (NLLEIAPHL; listed as Homo sapiens) [compound 180],"Brain, Leukocytes, Breast"
20,261 (YLYDSETKNA; listed as Homo sapiens) [compound 261],"Kidney, Liver, Pancreas, Ovary, Esophagus"
21,151 (SAQGSDVSLTACKV; listed as Homo sapiens) [compound 151],Lung
22,232 (RLLDSVSRL; listed as Homo sapiens) [compound 232],"Lung, Kidney, Liver, Pancreas, Breast, Ovary, Esophagus"
23,218 (KLSWDLIYL; listed as Homo sapiens) [compound 218],"Lung, Kidney"
24,105 (YALDLSTFL; listed as Homo sapiens) [compound 105],"Kidney, Liver"
25,131 (KLLDVVHPA; listed as Homo sapiens) [compound 131],"Lung, Brain, Liver, Prostate, Ovary"
26,205 (RLHDENILL; listed as Homo sapiens) [compound 205],"Lung, Kidney, Brain, Liver, Pancreas, Prostate, Ovary, Esophagus"

# Same assay, conditions: all samples with detectable presentation, all tumor types
row,Substance,number of cancer tissues with detectable presentation of the peptide
1,SEQ ID NO.: 6 (FLAELPGSLSL; listed as Homo sapiens),57
2,SEQ ID NO.: 9 (ILDDHLSRV; listed as Homo sapiens),5

# Same assay, conditions: brain cancers
row,Substance,additionally detected on brain cancers (positive/measured samples)
1,SEQ ID NO.: 210 (KLAVALLAA; listed as Homo sapiens),2/28

# Same assay, conditions: esophageal cancers
row,Substance,additionally detected on esophageal cancers (positive/measured samples)
1,SEQ ID NO.: 210 (KLAVALLAA; listed as Homo sapiens),3/15

# Same assay, conditions: kidney cancers
row,Substance,additionally detected on kidney cancers (positive/measured samples)
1,SEQ ID NO.: 210 (KLAVALLAA; listed as Homo sapiens),1/18

# Same assay, conditions: liver cancers
row,Substance,additionally detected on liver cancers (positive/measured samples)
1,SEQ ID NO.: 210 (KLAVALLAA; listed as Homo sapiens),2/16

# Same assay, conditions: lung cancers
row,Substance,additionally detected on lung cancers (positive/measured samples)
1,SEQ ID NO.: 210 (KLAVALLAA; listed as Homo sapiens),14/99

# Same assay, conditions: normal tissue panel as in FIG. 1A-C
row,Substance,number of normal tissues with detectable presentation of the peptide
1,SEQ ID NO.: 6 (FLAELPGSLSL; listed as Homo sapiens),2

# Same assay, conditions: ovarian cancers
row,Substance,additionally detected on ovarian cancers (positive/measured samples)
1,SEQ ID NO.: 210 (KLAVALLAA; listed as Homo sapiens),1/20

# Same assay, conditions: over-presentation on more than 5% of the measured tumor samples, or presentation on more than 5% of the measured tumor samples with ratio of geometric means tumor vs normal tissues larger than 3
row,Substance,Additional Entities (additional tumor types on which the peptide was found)
1,182 (SLNKWIFTV; listed as Homo sapiens) [compound 182],Melanoma
2,102 (KILVSLIEV; listed as Homo sapiens) [compound 102],NHL
3,23 (FLDANGHFV; listed as Homo sapiens) [compound 23],"GC, Esophageal Cancer, Gallbladder Cancer, Bile Duct Cancer"
4,66 (GLDDGPDFL; listed as Homo sapiens) [compound 66],Melanoma
5,150 (RLADLEALKV; listed as Homo sapiens) [compound 150],"Urinary bladder cancer, NHL"
6,153 (ILFSEDSTKLFV; listed as Homo sapiens) [compound 153],"Urinary bladder cancer, NHL"
7,159 (VLVDDDGIKVV; listed as Homo sapiens) [compound 159],"SCLC, BRCA, Esophageal Cancer, Urinary bladder cancer, Uterine Cancer, Gallbladder Cancer, Bile Duct Cancer, NHL"
8,74 (YLMGFLHAV; listed as Homo sapiens) [compound 74],"BRCA, Urinary bladder cancer"
9,33 (ALWEKNTHL; listed as Homo sapiens) [compound 33],Urinary bladder cancer
10,119 (ILYQTVTGL; listed as Homo sapiens) [compound 119],"CLL, Melanoma, Urinary bladder cancer, Uterine Cancer, AML, NHL"
11,103 (FLFGYPKRL; listed as Homo sapiens) [compound 103],"NSCLC, SCLC, Melanoma, Urinary bladder cancer, Uterine Cancer, AML"
12,79 (SLAADQLLKL; listed as Homo sapiens) [compound 79],Uterine Cancer
13,46 (GLDDRYSLV; listed as Homo sapiens) [compound 46],Urinary bladder cancer
14,143 (KLSDVWKEL; listed as Homo sapiens) [compound 143],"Gallbladder Cancer, Bile Duct Cancer"
15,132 (ALLNAILHSA; listed as Homo sapiens) [compound 132],"SCLC, CLL, Melanoma, Urinary bladder cancer, Uterine Cancer, NHL, PC"
16,45 (ALAELLHGA; listed as Homo sapiens) [compound 45],"Melanoma, Urinary bladder cancer, Uterine Cancer, Gallbladder Cancer, Bile Duct Cancer"
17,53 (FLLGSEIKL; listed as Homo sapiens) [compound 53],"HCC, Melanoma, Urinary bladder cancer, AML"
18,35 (KLLDLTVRI; listed as Homo sapiens) [compound 35],"Gallbladder Cancer, Bile Duct Cancer"
19,180 (NLLEIAPHL; listed as Homo sapiens) [compound 180],"NSCLC, Melanoma, OC, Esophageal Cancer, Urinary bladder cancer, Uterine Cancer, Gallbladder Cancer, Bile Duct Cancer, AML"
20,105 (YALDLSTFL; listed as Homo sapiens) [compound 105],"BRCA, Melanoma, Urinary bladder cancer, PC"
21,131 (KLLDVVHPA; listed as Homo sapiens) [compound 131],"CLL, BRCA, Urinary bladder cancer, Uterine Cancer, AML, NHL"

# Same assay, conditions: over-presentation on tumors compared to a panel of normal tissues
row,Substance,Peptide Presentation (presentation score)
1,230 (AMSSKFFLV; listed as Homo sapiens) [compound 230],++
2,102 (KILVSLIEV; listed as Homo sapiens) [compound 102],+++
3,60 (VLDEDEPRFL; listed as Homo sapiens) [compound 60],+
4,70 (MISELEVRL; listed as Homo sapiens) [compound 70],+
5,23 (FLDANGHFV; listed as Homo sapiens) [compound 23],+
6,66 (GLDDGPDFL; listed as Homo sapiens) [compound 66],+
7,150 (RLADLEALKV; listed as Homo sapiens) [compound 150],+++
8,153 (ILFSEDSTKLFV; listed as Homo sapiens) [compound 153],+
9,159 (VLVDDDGIKVV; listed as Homo sapiens) [compound 159],+++
10,74 (YLMGFLHAV; listed as Homo sapiens) [compound 74],++
11,33 (ALWEKNTHL; listed as Homo sapiens) [compound 33],+++
12,103 (FLFGYPKRL; listed as Homo sapiens) [compound 103],+
13,9 (ILDDHLSRV; listed as Homo sapiens) [compound 9],+++
14,46 (GLDDRYSLV; listed as Homo sapiens) [compound 46],+
15,206 (RIAGIRGIQGV; listed as Homo sapiens) [compound 206],++
16,21 (VLIDHRWVL; listed as Homo sapiens) [compound 21],+++
17,143 (KLSDVWKEL; listed as Homo sapiens) [compound 143],+++
18,132 (ALLNAILHSA; listed as Homo sapiens) [compound 132],+++
19,95 (AILDAHIEV; listed as Homo sapiens) [compound 95],+
20,41 (ILDDSFKLL; listed as Homo sapiens) [compound 41],++
21,45 (ALAELLHGA; listed as Homo sapiens) [compound 45],+++
22,53 (FLLGSEIKL; listed as Homo sapiens) [compound 53],++
23,259 (ALADKELLPSV; listed as Homo sapiens) [compound 259],+
24,35 (KLLDLTVRI; listed as Homo sapiens) [compound 35],+++
25,180 (NLLEIAPHL; listed as Homo sapiens) [compound 180],++
26,261 (YLYDSETKNA; listed as Homo sapiens) [compound 261],+
27,232 (RLLDSVSRL; listed as Homo sapiens) [compound 232],+
28,218 (KLSWDLIYL; listed as Homo sapiens) [compound 218],+
29,131 (KLLDVVHPA; listed as Homo sapiens) [compound 131],+++
30,205 (RLHDENILL; listed as Homo sapiens) [compound 205],+++

# Same assay, conditions: stomach cancers
row,Substance,additionally detected on stomach cancers (positive/measured samples)
1,SEQ ID NO.: 210 (KLAVALLAA; listed as Homo sapiens),1/45
